The values below come from ChEMBL document CHEMBL3132851, “Achieving improved permeability by hydrogen bond donor modulation in a series of MGAT2 inhibitors” (Medchemcomm, 2013).

The logD is lipophilicity at a set pH, counting ionised and neutral species. Low values mean a more hydrophilic compound, high ones a more lipophilic compound.

The nature of this series: Lipophilicity, log D of the compound at pH 7.4 after 30 mins by shake-flask method. The conditions noted are these: buffer, pH 7.4, logD.

Regarding `CC1(C)NC(=O)c2cc(S(=O)(=O)Nc3ccc(C(F)(F)F)cc3)c(F)cc2NC1=O`, the logD at 0.5 h stood at 2.3.
`Cc1cc2c(cc1S(=O)(=O)Nc1ccc(C(F)(F)F)cc1)C(=O)NC(C)(C)C(=O)N2` returned a logD at 0.5 h of 3.
